At least one structure is not confirmed: it was looked up by name or label, or the drawing left a doubt.
Test system: FOXO
Assay: FOXO activity in Huh7 cell lines transfected with miR-200 and treated with kinase inhibitors
Type: cell-based, human
Details: Huh7 cell lines transfected with miR-141/200a or miR-200b/c/429, inhibitor at 10 μM

Question: With `O=c1cc(N2CCOCC2)oc2c(-c3ccccc3)cccc12` [Ly294002] as the molecule, how does the “miR-200-mediated FOXO regulation (FOXO activity)” value read?
Answer: miR-200 did not reduce FOXO activity

Source: US20130011845A1, “MICRORNA REGULATING THE INSULIN SIGNALING PATHWAY, AND METHOD FOR SCREENING MATERIAL FOR CONTROLLING THE ACTION OF A TARGET THEREOF” (SNU R & DB Foundation, priority 2009, published 2013)
